In assay [1] the target is Flag-UBE2V1 (ubiquitin conjugating enzyme E2 variant 1) (UniProt Q13404). Nature of the assay: co-IP; Flag-UBE2V1 and His-UBE2S co-expressed; cells not given.
Assay [2] has the same target. Nature of the assay: co-IP; Flag-UBE2V1 and Myc-VHL co-expressed; IP with Flag antibody (forward) or Myc antibody (reverse); 3 distinct cell lines.
Assay [3] concerns the target von Hippel-Lindau (VHL) protein, endogenous (human (endogenous in HEK-293T and HCC cell lines)) (UniProt P40337). The assay is described as follows: co-IP; endogenous proteins in lysates of HEK-293T and HCC cell lines; primary antibody overnight at 4°C, Protein A/G magnetic beads, Western blot.

Amino acid sequences for entries named in this document (tags omitted). A change or cut given only in a name is not applied to a line headed by its entry.
UniProt Q13404: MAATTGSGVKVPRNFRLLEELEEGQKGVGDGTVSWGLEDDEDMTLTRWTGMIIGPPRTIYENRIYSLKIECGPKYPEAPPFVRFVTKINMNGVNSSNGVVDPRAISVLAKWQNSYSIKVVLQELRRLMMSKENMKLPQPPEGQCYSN
UniProt P40337: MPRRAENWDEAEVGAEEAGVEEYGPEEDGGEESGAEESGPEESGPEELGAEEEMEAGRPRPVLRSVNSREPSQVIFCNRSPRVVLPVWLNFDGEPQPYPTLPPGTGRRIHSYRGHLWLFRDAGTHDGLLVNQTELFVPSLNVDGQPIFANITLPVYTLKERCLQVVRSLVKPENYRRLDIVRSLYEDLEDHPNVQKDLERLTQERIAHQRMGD
UniProt Q16763: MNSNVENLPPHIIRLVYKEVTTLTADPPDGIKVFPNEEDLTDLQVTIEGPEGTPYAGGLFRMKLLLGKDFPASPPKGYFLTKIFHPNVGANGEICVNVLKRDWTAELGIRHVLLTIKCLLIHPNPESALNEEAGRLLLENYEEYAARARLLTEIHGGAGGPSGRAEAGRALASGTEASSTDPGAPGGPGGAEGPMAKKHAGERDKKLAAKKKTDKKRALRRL

Results are given in words; binding and its absence hold for the method and conditions named. In cells and extracts the contact can be indirect. Some entries that bind do so weakly or less than the wild type.

In article PMC12722638 one finds binding data, which are given here for 3 substances.

With “His-UBE2S (from UniProt Q16763 1-222) (enzyme)”, the binding result in assay [1] is “binds”. With Myc-VHL (from UniProt P40337 1-213), the binding entry in assay [2] is “binds”.

In the case of “UBE2S, endogenous (from UniProt Q16763 1-222) (enzyme)”, the binding result in assay [3] is recorded as “binds”.
